Reference: paper PMC8458377 (Nature Communications, 2021)
Numbering of substitutions follows the chain as printed. Names may count otherwise. These are yes or no findings as the source states them, for the method shown. Binding seen in cells or lysates may run through a third protein. Some entries that bind do so weakly or less than the wild type.

Molecular target: T1, Ty1 Gag (in virus-like particles) (S. cerevisiae) (UniProt P08405)
T1 sequence: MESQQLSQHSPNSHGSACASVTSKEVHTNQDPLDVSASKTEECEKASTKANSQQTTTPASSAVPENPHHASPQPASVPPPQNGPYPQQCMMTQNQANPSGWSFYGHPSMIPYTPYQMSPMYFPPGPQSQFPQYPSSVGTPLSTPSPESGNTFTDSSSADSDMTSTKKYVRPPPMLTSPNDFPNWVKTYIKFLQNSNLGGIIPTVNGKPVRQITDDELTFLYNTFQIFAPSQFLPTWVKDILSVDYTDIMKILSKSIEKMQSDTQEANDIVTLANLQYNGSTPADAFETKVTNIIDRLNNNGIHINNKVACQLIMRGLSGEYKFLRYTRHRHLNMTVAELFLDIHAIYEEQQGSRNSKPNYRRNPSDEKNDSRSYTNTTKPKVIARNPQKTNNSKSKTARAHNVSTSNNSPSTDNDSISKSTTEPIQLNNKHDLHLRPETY
Assay: co-sedimentation; protein extracts of galactose-induced yeast co-expressing Ty1 and the restriction factor, 7-47% continuous sucrose gradient, 25,000 rpm 3 h 4 °C, fractions immunoblotted (anti-TY for Gag, anti-hexa-histidine for p18 constructs)

B1: p18m_AUG1, Ty1 Gag residues M249-N355 (crystallised) (domain or fragment, S. cerevisiae, UniProt P08405 249-355, looked up)
chain: MKILSKSIEKMQSDTQEANDIVTLANLQYNGSTPADAFETKVTNIIDRLNNNGIHINNKVACQLIMRGLSGEYKFLRYTRHRHLNMTVAELFLDIHAIYEEQQGSRN
notes: S. cerevisiae Ty1A (Ty1 Gag), Uniprot P08405, residues M249-N355, starting at the AUG1 methionine; Residues D262 to Q351 are visible in the map; source: E. coli BL21 (DE3), purified (Ni-NTA, carboxypeptidase A digestion, gel filtration)
  binding: binds

B2: p18m_AUG1-A273V (expressed in yeast) (domain or fragment, UniProt P08405 249-355)
chain: B1 chain with A25V
  binding: binds

B3: p18m_AUG1-I269F (expressed in yeast) (domain or fragment, UniProt P08405 249-355)
chain: B1 chain with I21F
  binding: binds
